# Reference: patent publication US20080025918A1, “Invisible light fluorescent platelets for intraoperative detection of vascular thrombosis” (Beth Israel Deaconess Medical Center, Inc., priority 2006, published 2008)
# Test system: washed human platelets
# Test: Uptake (loading) of IR-786 into washed platelets
# Type: cell-based
smiles,measurement,setting,value
CN1C(=CC=C2CCCC(C=CC3=[N+](C)c4ccccc4C3(C)C)=C2Cl)C(C)(C)c2ccccc21.[O-][Cl+3]([O-])([O-])[O-] [IR-786],intracellular concentration,,approximately 700 μM
same,molecules of fluorophore per platelet,,approximately 3×10^6 molecules
same,IR-786 incorporated per platelet,2 μM IR-786,approximately 6 attomoles
same,molecules of IR-786 per platelet,2 μM IR-786,"roughly 3,600,000 molecules"
same,extracellular concentration up to which loading of platelets is linear,30 min at RT,≤ 2.5 µM
same,fluorescence remaining in the supernatant,all concentrations tested,only trace fluorescence
same,incubation time of maximal incorporation into platelets,"room temperature, 2 μM extracellular IR-786",30 min
